Data from patent US20150267174A1, “REPROGRAMMING PEPTIDE AND USE THEREOF” (priority 2012, published 2015).
Some results were stated once for a whole list of compounds, not compound by compound.

Tested on: Human adult fibroblast strain TIG113
Experiment: Spheroid formation after reverse transfection of peptide into fibroblasts
Assay type: cell-based
Method: Human adult fibroblast strain TIG113 was cultured in a medium mainly containing 10% fetal bovine serum-containing EMEM under humidified conditions at 37° C. and 5% CO2 until it reached 1×10^7 cells. A plate for reverse transfection was prepared by applying each peptide shown in Table 1 to each well of a 12 well plate at a concentration of 30 μg/well, and forming a solid phase by air-drying. Grown TIG113 was washed with CMF-PBS, and incubated in 0.25% trypsin solution at 37° C. for 10-15 min to dissociate the cells. Centrifugation and washing with PBS were repeated twice and the cells were suspended in iPS medium (manufactured by ReproCELL Incorporated). Using the cell suspension, human fibroblast was seeded at 2×10^4 cells on a plate for reverse transfection. As a reverse transfection medium, an iPS medium containing 10% fetal bovine serum and not containing bFGF was used. The number of ES colony-like spheroids formed was measured 7-10 days later, and the spheroid formation degree was evaluated (Table 1). In an experiment using the peptides of H11, H16, and H29, the ratio of the cells forming spheroid was calculated.

| Substance | number of cells that join spheroid formation (ratio of the cells forming spheroid) | spheroid formation ability (in words) |
| --- | --- | --- |
| Ac-GALFLGFLGAAGSTMGAWSQGKKRSKA-Cysamide (N-acetyl, C-terminal cysteamide; Reprogramming peptide) [H29] | 80-90% | – |
| Ac-GALFLGFLGAAGSTMGAWSQPKKKRKV-Cysamide (N-acetyl, C-terminal cysteamide; Reprogramming peptide) [H11] | 80-90% | – |
| GALFLGFLGAAGSTMGAWSQPKSKRKV (Reprogramming peptide) [H1] | – | spheroid formation ability is lost when amino acid of gp41 |
| GALFLGaLGAAGSTMGAWSQPKSKRKV (GALFLGALGAAGSTMGAWSQPKSKRKV; D-Ala; Reprogramming peptide) [H3] | – | spheroid formation ability is lost when amino acid of gp41 |
| GALaLGFLGAAGSTMGAWSQPKSKRKV (GALALGFLGAAGSTMGAWSQPKSKRKV; D-Ala; Reprogramming peptide) [H2] | – | spheroid formation ability is lost when amino acid of gp41 |
| GALaLGaLGAAGSTMGAWSQPKSKRKV (GALALGALGAAGSTMGAWSQPKSKRKV; D-Ala residues; Reprogramming peptide) [H4] | – | spheroid formation ability is lost when amino acid of gp41 |
